Assay results from the supplement of paper PMC10849652.
The other results are listed elsewhere or left out. Residues, ends and D or L forms follow the SMILES beside them. *: point of attachment. Cbz = O=C(OCc1ccccc1)*

Sequences of proteins named here, by UniProt entry; tags and fusion partners are left off. A change or cut given only in a name is not applied to a line headed by its entry.
UniProt O94830: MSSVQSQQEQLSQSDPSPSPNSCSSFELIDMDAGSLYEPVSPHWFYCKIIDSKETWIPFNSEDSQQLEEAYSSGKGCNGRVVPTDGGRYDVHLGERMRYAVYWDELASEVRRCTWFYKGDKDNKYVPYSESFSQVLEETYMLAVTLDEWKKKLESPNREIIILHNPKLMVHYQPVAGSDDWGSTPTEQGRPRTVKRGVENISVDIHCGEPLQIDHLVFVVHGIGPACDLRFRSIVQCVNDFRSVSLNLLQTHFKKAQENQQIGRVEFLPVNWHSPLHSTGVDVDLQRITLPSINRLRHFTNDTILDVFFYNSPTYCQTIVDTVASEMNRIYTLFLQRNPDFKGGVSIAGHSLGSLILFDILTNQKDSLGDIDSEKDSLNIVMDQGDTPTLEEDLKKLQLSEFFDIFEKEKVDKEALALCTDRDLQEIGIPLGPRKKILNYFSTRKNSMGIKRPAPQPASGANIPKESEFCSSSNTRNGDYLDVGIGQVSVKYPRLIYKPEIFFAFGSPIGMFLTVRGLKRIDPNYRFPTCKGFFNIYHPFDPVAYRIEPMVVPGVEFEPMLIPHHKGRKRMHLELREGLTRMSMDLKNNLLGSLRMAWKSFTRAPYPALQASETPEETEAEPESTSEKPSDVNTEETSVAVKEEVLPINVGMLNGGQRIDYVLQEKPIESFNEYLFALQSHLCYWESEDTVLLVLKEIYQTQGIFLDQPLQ
UniProt Q9Y6V7: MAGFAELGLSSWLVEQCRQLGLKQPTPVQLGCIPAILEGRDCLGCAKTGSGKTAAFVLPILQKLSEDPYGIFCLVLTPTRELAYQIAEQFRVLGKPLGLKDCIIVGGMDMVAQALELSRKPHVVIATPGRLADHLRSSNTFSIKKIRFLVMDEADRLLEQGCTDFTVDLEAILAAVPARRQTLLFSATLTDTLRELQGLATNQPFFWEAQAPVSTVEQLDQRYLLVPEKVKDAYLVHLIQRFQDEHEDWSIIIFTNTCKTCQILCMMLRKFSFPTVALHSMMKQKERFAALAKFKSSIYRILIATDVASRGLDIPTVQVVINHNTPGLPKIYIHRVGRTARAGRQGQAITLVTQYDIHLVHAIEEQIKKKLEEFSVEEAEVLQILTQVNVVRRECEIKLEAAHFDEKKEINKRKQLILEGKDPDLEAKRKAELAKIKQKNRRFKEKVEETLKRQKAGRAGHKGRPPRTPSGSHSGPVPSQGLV
UniProt Q9NY93: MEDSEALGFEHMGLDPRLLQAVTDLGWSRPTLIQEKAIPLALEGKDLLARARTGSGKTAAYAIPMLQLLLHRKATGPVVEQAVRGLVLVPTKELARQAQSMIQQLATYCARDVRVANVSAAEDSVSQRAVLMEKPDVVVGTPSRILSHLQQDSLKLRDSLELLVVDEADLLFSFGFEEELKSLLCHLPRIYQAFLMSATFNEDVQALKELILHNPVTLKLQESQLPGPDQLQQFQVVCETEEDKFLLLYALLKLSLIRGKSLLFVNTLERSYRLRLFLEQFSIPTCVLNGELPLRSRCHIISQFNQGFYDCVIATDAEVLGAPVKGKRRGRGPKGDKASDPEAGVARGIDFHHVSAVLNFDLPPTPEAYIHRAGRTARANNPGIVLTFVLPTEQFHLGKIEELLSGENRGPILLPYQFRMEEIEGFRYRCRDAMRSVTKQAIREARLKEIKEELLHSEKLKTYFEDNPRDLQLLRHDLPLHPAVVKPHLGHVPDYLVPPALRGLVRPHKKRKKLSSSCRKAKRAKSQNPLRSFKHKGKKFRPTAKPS
UniProt P35659: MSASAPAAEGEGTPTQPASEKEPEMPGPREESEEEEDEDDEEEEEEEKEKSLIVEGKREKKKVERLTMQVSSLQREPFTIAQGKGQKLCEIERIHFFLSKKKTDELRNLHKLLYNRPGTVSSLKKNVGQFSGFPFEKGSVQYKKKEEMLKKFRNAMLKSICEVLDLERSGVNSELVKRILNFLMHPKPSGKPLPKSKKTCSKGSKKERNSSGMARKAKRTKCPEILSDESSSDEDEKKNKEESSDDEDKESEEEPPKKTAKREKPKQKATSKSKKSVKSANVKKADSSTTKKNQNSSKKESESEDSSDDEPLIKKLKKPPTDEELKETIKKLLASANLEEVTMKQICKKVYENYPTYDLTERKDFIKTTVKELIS
UniProt Q9NUU7: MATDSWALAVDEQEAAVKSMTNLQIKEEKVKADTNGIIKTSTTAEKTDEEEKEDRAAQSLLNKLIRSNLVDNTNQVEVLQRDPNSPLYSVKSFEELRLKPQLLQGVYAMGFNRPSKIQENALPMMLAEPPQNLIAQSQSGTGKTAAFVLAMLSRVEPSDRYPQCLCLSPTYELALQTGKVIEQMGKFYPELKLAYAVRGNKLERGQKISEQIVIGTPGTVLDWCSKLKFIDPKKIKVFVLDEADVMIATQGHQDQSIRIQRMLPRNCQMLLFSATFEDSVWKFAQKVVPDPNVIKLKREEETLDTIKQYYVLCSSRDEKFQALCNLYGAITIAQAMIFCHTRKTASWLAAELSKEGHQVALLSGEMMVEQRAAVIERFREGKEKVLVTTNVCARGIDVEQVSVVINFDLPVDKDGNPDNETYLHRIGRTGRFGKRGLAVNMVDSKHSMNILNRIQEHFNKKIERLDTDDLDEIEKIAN
UniProt Q9BTZ2: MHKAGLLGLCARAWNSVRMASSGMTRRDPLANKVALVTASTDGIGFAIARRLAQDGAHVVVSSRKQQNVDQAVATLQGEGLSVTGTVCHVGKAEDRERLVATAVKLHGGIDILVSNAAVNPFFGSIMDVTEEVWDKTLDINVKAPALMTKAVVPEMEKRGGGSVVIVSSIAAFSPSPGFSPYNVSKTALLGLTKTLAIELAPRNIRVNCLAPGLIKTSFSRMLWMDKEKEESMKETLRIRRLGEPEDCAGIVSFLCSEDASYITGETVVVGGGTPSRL
UniProt P11532, whole entry, looked up: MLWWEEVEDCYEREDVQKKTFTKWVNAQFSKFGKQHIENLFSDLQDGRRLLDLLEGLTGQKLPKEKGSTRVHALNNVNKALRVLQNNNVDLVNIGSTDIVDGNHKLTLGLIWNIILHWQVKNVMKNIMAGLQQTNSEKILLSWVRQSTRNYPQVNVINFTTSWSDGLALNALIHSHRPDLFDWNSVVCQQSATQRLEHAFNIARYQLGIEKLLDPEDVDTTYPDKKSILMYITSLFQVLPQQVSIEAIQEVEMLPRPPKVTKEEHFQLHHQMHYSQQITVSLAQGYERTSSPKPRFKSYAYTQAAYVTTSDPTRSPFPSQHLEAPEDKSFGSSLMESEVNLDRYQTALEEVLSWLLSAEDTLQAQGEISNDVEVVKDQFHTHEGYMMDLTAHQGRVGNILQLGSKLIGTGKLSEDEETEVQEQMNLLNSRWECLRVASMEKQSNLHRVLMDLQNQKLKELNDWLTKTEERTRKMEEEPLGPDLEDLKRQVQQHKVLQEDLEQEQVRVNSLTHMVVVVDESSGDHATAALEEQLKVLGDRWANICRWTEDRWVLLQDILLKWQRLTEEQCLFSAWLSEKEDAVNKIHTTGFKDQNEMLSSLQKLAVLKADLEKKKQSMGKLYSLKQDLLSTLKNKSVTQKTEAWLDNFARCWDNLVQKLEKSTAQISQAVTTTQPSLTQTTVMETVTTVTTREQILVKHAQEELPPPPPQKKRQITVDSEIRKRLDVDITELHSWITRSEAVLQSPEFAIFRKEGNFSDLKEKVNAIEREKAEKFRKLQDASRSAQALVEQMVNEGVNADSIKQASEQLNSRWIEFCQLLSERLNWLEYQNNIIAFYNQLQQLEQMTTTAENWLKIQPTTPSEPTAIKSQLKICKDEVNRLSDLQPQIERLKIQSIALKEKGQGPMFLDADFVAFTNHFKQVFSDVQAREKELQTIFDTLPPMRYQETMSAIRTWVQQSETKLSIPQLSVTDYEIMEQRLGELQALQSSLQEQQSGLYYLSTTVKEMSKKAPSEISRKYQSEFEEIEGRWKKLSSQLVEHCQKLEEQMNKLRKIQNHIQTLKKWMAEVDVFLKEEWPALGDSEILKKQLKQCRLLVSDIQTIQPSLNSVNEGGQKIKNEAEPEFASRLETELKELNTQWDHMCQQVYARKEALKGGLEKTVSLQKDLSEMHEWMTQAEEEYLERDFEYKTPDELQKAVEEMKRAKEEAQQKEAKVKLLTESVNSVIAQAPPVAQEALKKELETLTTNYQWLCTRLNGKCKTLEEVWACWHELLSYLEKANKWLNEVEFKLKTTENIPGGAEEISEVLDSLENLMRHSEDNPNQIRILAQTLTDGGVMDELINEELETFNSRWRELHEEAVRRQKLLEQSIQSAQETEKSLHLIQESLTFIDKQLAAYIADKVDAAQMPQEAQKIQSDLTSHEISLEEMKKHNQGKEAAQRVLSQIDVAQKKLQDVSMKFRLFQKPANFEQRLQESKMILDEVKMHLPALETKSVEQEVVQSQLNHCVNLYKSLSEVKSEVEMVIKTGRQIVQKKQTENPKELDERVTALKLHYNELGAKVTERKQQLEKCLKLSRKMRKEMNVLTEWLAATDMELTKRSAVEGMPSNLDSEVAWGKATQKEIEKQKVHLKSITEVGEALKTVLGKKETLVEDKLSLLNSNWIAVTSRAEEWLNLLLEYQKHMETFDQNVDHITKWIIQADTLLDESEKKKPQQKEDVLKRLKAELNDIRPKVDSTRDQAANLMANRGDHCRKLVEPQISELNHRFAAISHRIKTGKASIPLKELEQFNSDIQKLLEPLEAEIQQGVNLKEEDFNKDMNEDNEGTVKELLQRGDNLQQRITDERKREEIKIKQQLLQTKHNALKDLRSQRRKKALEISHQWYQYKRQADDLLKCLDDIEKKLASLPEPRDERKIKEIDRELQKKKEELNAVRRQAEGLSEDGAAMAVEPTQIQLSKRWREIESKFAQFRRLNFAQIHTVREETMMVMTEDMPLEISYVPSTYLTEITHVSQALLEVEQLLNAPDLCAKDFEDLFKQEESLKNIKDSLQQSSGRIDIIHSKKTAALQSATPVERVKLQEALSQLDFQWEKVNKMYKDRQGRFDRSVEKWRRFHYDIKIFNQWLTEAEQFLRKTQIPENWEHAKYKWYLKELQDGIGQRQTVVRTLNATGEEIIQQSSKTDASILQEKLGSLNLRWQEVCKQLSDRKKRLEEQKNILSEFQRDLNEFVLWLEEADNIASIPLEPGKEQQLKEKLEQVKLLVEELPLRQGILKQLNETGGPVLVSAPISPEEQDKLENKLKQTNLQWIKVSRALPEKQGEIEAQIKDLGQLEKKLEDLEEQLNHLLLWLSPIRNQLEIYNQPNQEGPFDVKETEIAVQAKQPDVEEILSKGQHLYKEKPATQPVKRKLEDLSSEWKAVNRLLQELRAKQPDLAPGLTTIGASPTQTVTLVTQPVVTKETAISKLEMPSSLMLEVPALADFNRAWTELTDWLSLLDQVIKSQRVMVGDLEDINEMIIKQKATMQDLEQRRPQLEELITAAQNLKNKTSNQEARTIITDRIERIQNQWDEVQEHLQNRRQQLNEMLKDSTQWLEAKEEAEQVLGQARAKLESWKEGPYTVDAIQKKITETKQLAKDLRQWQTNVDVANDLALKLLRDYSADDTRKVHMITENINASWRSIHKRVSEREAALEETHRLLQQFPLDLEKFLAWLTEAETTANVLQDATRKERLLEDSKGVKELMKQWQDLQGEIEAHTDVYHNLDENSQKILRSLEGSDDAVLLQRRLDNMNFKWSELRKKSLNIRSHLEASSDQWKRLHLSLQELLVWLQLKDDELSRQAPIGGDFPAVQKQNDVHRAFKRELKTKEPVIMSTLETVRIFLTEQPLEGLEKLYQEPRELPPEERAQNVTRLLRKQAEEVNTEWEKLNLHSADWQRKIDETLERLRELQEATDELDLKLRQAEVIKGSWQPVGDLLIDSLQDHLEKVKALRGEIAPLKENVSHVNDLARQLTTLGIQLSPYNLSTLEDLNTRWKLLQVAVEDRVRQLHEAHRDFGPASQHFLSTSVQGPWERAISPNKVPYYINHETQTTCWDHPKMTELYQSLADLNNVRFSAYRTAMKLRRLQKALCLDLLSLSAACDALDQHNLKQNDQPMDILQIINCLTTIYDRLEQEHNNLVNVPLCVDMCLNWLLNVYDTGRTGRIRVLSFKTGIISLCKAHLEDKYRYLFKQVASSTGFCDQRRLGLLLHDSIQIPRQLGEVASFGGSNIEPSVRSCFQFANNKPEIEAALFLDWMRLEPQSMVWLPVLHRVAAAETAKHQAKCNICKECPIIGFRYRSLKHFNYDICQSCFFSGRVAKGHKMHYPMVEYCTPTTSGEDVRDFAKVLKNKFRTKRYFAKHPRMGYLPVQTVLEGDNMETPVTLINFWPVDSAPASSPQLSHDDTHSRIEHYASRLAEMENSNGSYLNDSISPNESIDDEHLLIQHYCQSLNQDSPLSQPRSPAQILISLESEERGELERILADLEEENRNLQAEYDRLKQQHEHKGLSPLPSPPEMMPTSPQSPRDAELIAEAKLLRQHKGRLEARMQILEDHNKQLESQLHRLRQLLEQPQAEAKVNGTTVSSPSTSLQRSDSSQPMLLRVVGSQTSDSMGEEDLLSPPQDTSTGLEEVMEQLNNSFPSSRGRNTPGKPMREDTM

Experiments:
Assay in all cases: log2 fold change, soluble protein after heating vs DMSO (PISA); higher = thermal stabilisation; K562 cells, 10 uM, 30 min; active = over 0.2 and 3.5 SD of the protein, either way, in both replicates (recomputed)
[1] = compound: C#Cc1cccc(Nc2ncnc3cc(OCCOC)c(OCCOC)cc23)c1 [erlotinib]
Procedure, shortened: (§1)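 K562 cells at 2×10^6 cells/mL were exposed to 10 μM compound for 30 min, then aliquots were heated for 3 min across 48°C-58°C, pooled, and extracted in PBS containing 0.5% NP-40 at 4°C. The supernatant after 21,000xg for 90 min was taken as soluble protein and measured by TMTpro 16plex LC-MS/MS with channel sums equalised. Thermal stability is reported relative to control samples, with values from duplicates. Fold changes are given on a log2 scale.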

[2] = compound: C/C(=N\NC(=O)C1=CC(=CC=C1)S(=O)(=O)N2CCOCC2)/C3=C(C=CC(=C3)Cl)O
Procedure, shortened: as §1

[3] = compound: C1=CC(=C(C=C1Cl)C2=NC3=NC=CN=C3C(=N2)NC4=CC=NC=C4)F
Procedure, shortened: as §1

[4] = compound: C1=CC(=CC=C1C2=NC3=C(N2)C=C(C=C3)C(=O)N)OC4=CC=C(C=C4)Cl
Procedure, shortened: as §1

[5] = compound: C1=CC2=C(C=CC(=C2)/C=C\3/C(=O)NC(=NCC4=CC=CS4)S3)N=C1
Procedure, shortened: as §1

[6] = compound: C1=CC2=NC=CN=C2C=C1/C=C/3\C(=O)NC(=O)S3
Procedure, shortened: as §1

[7] = compound: C1=CC=C(C=C1)C2=NC(=C(N2)C3=CC=NC=C3)C4=CC(=C(C=C4)Cl)O
Procedure, shortened: as §1

[8] = compound: C1=CC=C2C(=C1)C3=NNC4=CC=CC(=C43)C2=O
Procedure, shortened: as §1

[9] = compound: C1CCN(C1)C(=O)NC2=CC=CC(=C2)NC3=NC=C(C(=N3)NCCC4=CN=CN4)Br
Procedure, shortened: as §1

[10] = compound: C1CN(CCC1(CC2=CC=C(C=C2)Cl)N)C3=NC=NC4=C3C=CN4
Procedure, shortened: as §1

[11] = compound: C1COCCN1CCN2C3=CC=CC=C3N=C2NC(=O)C4=CC(=CC=C4)[N+](=O)[O-] [IRAK-1-4 Inhibitor I]
Procedure, shortened: as §1

[12] = compound: C=CC(=O)N1CCC[C@@H](n2nc(-c3ccc(Oc4ccccc4)cc3)c3c(N)ncnc32)C1 [ibrutinib]
Procedure, shortened: as §1

[13] = compound: CC(=O)c1cnc2ccc(-c3cc(Cl)c(O)c(Cl)c3)nc2c1N[C@H]1CC[C@H](CN(C)C)CC1
Procedure, shortened: as §1

[14] = compound: CC(C)(C)Cn1c(N)nc2ccc(-c3[nH]c(C(C)(C)C)nc3-c3ccc(F)cc3)nc21 [ralimetinib]
Procedure, shortened: as §1

[15] = compound: CC(C)(O)CC(=O)NCCn1ccc2ncnc(Nc3ccc(Oc4cccc(C(F)(F)F)c4)c(Cl)c3)c21
Procedure, shortened: as §1

[16] = compound: CC(C)C1=C2N=C(C=C(N2N=C1)NCC3=CC=CC=C3)NCCCCCCN
Procedure, shortened: as §1

[17] = compound: CC(C)C[C@@H](C=O)NC(=O)[C@H](CC(C)C)NC(=O)[C@H](CC(C)C)NC(=O)OCc1ccccc1
Procedure, shortened: as §1

[18] = compound: CC(C)N(C[C@H]1O[C@@H](n2cnc3c(N)ncnc32)[C@H](O)[C@@H]1O)[C@H]1C[C@@H](CCc2nc3cc(C(C)(C)C)ccc3[nH]2)C1 [pinometostat]
Procedure, shortened: as §1

[19] = compound: CC1=C(C(CC(=O)N1)C2=CC=C(C=C2)C(F)(F)F)C(=O)NC3=C(C=C4C(=C3)C=NN4)F
Procedure, shortened: as §1

[20] = compound: CC1=C(C2=C(C=C1)C(=O)C3=CC=CC=C3N2CCCN)C
Procedure, shortened: as §1

Measured: log2 fold change

DHRS11 (UniProt Q6UWP2)
inactive: [1] 0.095 | [2] -0.002 | [3] 0.067 | [4] -0.019 | [5] 0.059 | [6] -0.009 | [7] 0.042 | [8] 0.038 | [9] -0.037 | [10] 0.098 | [11] 0.079 | [12] 0.028 | [13] -0.1 | [14] 0.01 | [15] -0.036 | [16] 0.001 | [17] -0.058 | [18] -0.03 | [19] 0.01 | [20] 0.129

DDX17 (UniProt Q92841)
inactive: [1] 0.008 | [2] 0.037 | [3] -0.016 | [4] 0.028 | [5] -0.022 | [6] -0.029 | [7] -0.021 | [8] -0.003 | [9] 0.003 | [10] -0.061 | [11] -0.114 | [12] -0.003 | [13] -0.089 | [14] -0.01 | [15] -0.082 | [16] -0.095 | [17] 0.047 | [18] 0.018 | [19] -0.025 | [20] 0.137

DDHD2 (UniProt O94830)
inactive: [1] 0.031 | [2] 0.021 | [3] 0.001 | [4] 0.011 | [5] 0.009 | [6] 0.033 | [7] -0.034 | [8] -0.009 | [9] -0.004 | [10] 0.063 | [11] 0.042 | [12] 0.023 | [13] -0.079 | [14] 0.01 | [15] -0.009 | [16] -0.13 | [17] 0.01 | [18] 0.006 | [19] 0.012 | [20] 0.045

DDX21 (UniProt Q9NR30)
inactive: [1] -0.013 | [2] -0.049 | [3] -0.282 | [4] 0.065 | [5] -0.038 | [6] 0.139 | [7] 0.043 | [8] -0.039 | [9] -0.008 | [10] -0.223 | [11] -0.077 | [12] -0.015 | [13] 0.008 | [14] 0.117 | [15] -0.026 | [16] 0.022 | [17] 0.291 | [18] 0.248 | [19] -0.032 | [20] 0.006

DDX1 (UniProt Q92499)
inactive: [1] -0.044 | [2] 0.016 | [3] -0.079 | [4] -0.014 | [5] 0.01 | [6] 0.009 | [7] -0.01 | [8] 0.042 | [9] 0.017 | [10] -0.124 | [11] -0.105 | [12] -0.05 | [13] 0.08 | [14] 0.107 | [15] 0 | [16] -0.036 | [17] 0.148 | [18] 0.195 | [19] -0.064 | [20] -0.022

DDX49 (UniProt Q9Y6V7)
inactive: [1] -0.083 | [2] -0.018 | [3] -0.171 | [4] 0.101 | [5] -0.02 | [6] 0.045 | [7] -0.015 | [8] 0.022 | [9] -0.04 | [10] -0.2 | [11] -0.171 | [12] 0.008 | [13] 0.059 | [14] 0.031 | [15] -0.001 | [16] 0.039 | [17] 0.07 | [18] 0.179 | [19] 0.003 | [20] 0.027

DDX56 (UniProt Q9NY93)
inactive: [1] -0.024 | [2] -0.056 | [3] -0.172 | [4] 0.068 | [5] -0.109 | [6] 0.007 | [7] -0.019 | [8] 0.118 | [9] 0.13 | [10] 0.011 | [11] -0.093 | [12] -0.099 | [13] 0.113 | [14] 0.131 | [15] -0.102 | [16] -0.01 | [17] 0.116 | [18] 0.22 | [19] 0.044 | [20] -0.181

DEK (UniProt P35659)
inactive: [1] 0.009 | [2] 0.088 | [3] 0.028 | [4] -0.012 | [5] 0.028 | [6] -0.013 | [7] 0.03 | [8] -0.021 | [9] -0.059 | [10] -0.066 | [11] -0.056 | [12] -0.004 | [13] -0.097 | [14] 0.048 | [15] -0.1 | [16] -0.128 | [17] 0.032 | [18] -0.039 | [19] -0.003 | [20] 0.038

DDX19A (UniProt Q9NUU7)
inactive: [1] 0.004 | [2] 0.053 | [3] 0.011 | [4] -0.02 | [5] -0.116 | [6] 0.021 | [7] 0.078 | [8] 0.058 | [9] -0.027 | [10] 0.105 | [11] 0.052 | [12] 0.002 | [13] -0.004 | [14] -0.005 | [15] -0.054 | [16] -0.022 | [17] -0.054 | [18] -0.054 | [19] 0.005 | [20] 0.016

DLST (UniProt P36957)
inactive: [1] -0.066 | [2] -0.088 | [3] -0.029 | [4] -0.023 | [5] -0.058 | [6] 0.007 | [7] -0.013 | [8] 0.011 | [9] 0.03 | [10] 0.004 | [11] -0.029 | [12] 0.003 | [13] 0.035 | [14] 0.017 | [15] -0.012 | [16] 0.068 | [17] 0.002 | [18] -0.014 | [19] 0.063 | [20] -0.019

DIS3L2 (UniProt Q8IYB7)
inactive: [1] 0.013 | [2] -0.024 | [3] -0.065 | [4] 0 | [5] 0.011 | [6] 0.173 | [7] -0.006 | [8] -0.111 | [9] 0.037 | [10] -0.164 | [11] -0.034 | [12] 0.002 | [13] -0.035 | [14] 0.06 | [15] 0.037 | [16] -0.048 | [17] 0.023 | [18] 0.068 | [19] -0.022 | [20] -0.261

DHRS4 (UniProt Q9BTZ2)
inactive: [1] -0.008 | [2] 0.012 | [3] 0.08 | [4] 0.027 | [5] -0.022 | [6] 0.028 | [7] -0.071 | [8] -0.012 | [9] -0.003 | [10] -0.015 | [11] 0.068 | [12] 0.027 | [13] -0.007 | [14] 0.099 | [15] -0.013 | [16] -0.014 | [17] -0.024 | [18] -0.067 | [19] 0.026 | [20] -0.034

DNAH8 (UniProt Q96JB1)
inactive: [1] 0.148 | [2] -0.052 | [3] 0.138 | [4] -0.054 | [5] 0.166 | [6] 0 | [7] -0.014 | [8] -0.054 | [9] 0 | [10] 0.109 | [11] 0.044 | [12] 0.162 | [13] 0.053 | [14] -0.071 | [15] -0.052 | [16] 0.095 | [17] -0.067 | [18] -0.114 | [19] 0.067 | [20] -0.001

DLG2 isoform 2 (UniProt Q15700)
inactive: [1] -0.026 | [2] 0.094 | [3] -0.031 | [4] 0.008 | [5] -0.032 | [6] 0.116 | [7] 0.005 | [8] -0.079 | [9] -0.021 | [10] -0.001 | [11] 0.007 | [12] -0.045 | [13] 0.013 | [14] -0.026 | [15] -0.047 | [16] 0.005 | [17] 0.013 | [18] -0.06 | [19] 0.173 | [20] -0.017

DMD (UniProt P11532)
inactive: [1] 0.013 | [2] 0.03 | [3] -0.001 | [4] -0.031 | [5] -0.007 | [6] 0.004 | [7] -0.041 | [8] -0.016 | [9] -0.018 | [10] 0.05 | [11] 0.015 | [12] -0.013 | [13] -0.108 | [14] -0.032 | [15] 0.022 | [16] -0.025 | [17] -0.006 | [18] 0.002 | [19] 0.005 | [20] 0.016

DNAJA2 (UniProt O60884)
inactive: [1] 0.011 | [2] 0.006 | [3] 0.04 | [4] 0.02 | [5] 0.05 | [6] 0.024 | [7] 0.021 | [8] -0.011 | [9] -0.025 | [10] -0.008 | [11] -0.001 | [12] 0.014 | [13] -0.042 | [14] -0.051 | [15] -0.001 | [16] -0.022 | [17] -0.024 | [18] -0.064 | [19] 0.014 | [20] 0.097
